# Test results: the supplement of paper PMC12067093, “Discovery and optimisation of a covalent ligand for TRIM25 and its application to targeted protein ubiquitination” (Chemical Science, 2025)
# Sequences of proteins named here, by UniProt entry; tags and fusion partners are left off. A change or cut given only in a name is not applied to a line headed by its entry.
# UniProt P53992: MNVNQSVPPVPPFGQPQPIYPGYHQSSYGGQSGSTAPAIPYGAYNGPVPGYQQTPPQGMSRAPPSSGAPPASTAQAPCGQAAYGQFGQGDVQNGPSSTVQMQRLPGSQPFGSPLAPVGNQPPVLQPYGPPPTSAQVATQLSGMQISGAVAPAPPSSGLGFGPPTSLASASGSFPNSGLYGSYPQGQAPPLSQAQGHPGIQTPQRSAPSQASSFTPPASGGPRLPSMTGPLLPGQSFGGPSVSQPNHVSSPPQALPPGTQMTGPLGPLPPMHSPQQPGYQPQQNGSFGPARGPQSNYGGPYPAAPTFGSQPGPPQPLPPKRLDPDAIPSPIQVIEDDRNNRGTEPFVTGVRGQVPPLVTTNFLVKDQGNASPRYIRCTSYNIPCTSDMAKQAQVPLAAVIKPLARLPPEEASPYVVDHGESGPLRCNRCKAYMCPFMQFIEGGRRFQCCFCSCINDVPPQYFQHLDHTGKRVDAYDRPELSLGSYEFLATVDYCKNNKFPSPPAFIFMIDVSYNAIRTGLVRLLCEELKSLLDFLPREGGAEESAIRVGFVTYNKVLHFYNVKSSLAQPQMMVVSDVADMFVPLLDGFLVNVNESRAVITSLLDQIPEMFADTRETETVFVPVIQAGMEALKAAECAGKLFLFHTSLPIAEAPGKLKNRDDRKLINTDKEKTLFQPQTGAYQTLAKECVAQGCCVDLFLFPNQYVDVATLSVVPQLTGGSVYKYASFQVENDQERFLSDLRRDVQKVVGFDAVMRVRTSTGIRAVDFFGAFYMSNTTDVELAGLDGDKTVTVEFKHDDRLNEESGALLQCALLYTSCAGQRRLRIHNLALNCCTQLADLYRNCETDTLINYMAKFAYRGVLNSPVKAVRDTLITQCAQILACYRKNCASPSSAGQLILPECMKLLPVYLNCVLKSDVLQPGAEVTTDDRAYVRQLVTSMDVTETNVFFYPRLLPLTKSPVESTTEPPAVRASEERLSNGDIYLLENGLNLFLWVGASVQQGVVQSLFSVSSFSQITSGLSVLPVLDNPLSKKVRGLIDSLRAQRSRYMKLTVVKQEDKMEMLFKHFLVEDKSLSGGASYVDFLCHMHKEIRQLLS
# UniProt Q96EE3: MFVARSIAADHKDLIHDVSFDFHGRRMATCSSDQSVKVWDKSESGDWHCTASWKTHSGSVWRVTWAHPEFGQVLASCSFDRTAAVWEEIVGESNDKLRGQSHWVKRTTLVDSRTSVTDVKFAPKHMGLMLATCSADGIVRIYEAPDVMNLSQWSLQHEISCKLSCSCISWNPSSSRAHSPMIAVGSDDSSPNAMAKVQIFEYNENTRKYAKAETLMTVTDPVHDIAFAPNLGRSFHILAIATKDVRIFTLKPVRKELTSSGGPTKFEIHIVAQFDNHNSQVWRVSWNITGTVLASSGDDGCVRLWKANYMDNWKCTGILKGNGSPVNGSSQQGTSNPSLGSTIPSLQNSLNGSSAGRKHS
# UniProt O15027: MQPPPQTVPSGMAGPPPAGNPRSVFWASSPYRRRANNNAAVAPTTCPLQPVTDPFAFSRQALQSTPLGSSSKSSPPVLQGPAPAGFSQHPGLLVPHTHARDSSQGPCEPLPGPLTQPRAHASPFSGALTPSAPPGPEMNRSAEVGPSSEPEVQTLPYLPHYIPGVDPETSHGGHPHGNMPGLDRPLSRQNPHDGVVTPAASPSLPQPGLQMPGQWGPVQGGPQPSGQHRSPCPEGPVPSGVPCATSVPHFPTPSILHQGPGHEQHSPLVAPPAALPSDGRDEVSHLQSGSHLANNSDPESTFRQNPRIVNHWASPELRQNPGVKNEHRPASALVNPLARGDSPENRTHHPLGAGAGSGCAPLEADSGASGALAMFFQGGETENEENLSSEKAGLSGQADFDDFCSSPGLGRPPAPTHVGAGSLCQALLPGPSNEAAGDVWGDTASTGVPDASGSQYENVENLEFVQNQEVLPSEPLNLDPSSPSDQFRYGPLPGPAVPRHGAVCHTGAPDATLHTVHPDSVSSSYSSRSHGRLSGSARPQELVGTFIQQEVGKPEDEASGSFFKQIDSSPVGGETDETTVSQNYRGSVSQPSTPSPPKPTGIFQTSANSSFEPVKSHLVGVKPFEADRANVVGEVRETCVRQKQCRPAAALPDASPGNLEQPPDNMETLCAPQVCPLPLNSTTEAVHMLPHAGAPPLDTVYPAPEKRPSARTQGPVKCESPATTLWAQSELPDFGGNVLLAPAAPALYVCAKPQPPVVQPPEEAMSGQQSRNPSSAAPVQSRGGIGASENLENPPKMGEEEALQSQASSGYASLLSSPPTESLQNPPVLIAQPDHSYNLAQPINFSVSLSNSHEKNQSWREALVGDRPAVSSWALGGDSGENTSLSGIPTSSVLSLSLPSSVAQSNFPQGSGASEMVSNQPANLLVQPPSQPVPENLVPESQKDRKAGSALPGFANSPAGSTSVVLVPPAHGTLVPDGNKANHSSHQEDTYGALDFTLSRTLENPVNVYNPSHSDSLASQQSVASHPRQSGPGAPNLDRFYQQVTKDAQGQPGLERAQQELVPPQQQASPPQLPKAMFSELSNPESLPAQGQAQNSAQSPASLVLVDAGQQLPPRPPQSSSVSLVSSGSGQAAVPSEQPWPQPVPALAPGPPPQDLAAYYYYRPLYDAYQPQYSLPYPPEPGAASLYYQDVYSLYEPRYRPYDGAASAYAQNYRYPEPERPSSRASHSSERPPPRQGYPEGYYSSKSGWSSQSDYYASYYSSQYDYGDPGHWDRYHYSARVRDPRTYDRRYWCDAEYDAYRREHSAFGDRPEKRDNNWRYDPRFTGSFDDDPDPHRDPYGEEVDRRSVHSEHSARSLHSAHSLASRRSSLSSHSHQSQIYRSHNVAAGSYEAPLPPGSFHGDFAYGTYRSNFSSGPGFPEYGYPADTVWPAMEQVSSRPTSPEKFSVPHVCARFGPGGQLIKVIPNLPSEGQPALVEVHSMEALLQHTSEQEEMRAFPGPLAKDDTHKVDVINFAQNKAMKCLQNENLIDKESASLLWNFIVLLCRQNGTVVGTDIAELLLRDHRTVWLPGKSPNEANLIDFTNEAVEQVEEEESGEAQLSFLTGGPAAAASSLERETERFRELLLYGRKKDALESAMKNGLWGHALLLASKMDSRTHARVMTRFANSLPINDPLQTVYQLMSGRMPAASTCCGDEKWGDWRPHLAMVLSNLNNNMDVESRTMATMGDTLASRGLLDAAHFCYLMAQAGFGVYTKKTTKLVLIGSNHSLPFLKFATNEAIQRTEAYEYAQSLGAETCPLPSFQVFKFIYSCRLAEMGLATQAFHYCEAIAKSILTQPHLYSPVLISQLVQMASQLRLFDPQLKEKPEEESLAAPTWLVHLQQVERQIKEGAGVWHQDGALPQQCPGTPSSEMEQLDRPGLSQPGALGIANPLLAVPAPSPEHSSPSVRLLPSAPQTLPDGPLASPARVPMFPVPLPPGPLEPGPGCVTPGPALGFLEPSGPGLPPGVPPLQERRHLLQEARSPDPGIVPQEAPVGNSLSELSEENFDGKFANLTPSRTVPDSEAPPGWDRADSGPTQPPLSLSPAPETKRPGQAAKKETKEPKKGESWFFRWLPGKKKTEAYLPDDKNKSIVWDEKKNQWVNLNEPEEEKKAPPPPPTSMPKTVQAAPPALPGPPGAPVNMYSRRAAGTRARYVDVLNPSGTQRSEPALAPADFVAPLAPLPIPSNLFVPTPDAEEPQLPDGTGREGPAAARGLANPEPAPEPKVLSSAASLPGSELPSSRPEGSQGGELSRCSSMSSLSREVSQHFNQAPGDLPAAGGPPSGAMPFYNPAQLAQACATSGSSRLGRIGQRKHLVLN
# UniProt Q15436: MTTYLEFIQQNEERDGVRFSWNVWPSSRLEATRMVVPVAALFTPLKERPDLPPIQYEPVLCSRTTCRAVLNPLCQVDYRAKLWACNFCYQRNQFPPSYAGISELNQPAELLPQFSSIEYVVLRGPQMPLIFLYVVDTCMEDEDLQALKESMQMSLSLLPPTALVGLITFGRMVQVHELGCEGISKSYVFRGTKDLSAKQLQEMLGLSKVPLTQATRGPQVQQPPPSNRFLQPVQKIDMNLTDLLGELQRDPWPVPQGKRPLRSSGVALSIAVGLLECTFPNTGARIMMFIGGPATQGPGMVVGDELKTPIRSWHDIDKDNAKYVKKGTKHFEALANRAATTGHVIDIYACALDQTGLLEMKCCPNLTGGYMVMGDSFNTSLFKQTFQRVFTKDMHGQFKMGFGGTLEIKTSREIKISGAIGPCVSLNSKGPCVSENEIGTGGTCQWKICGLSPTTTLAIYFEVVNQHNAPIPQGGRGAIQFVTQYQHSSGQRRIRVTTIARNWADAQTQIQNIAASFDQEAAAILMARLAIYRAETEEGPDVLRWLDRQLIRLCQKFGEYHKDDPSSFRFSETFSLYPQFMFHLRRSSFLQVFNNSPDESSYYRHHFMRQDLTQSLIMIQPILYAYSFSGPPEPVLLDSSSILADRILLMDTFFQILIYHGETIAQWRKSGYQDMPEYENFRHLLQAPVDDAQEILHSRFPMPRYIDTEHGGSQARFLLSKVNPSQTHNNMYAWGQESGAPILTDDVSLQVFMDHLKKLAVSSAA
# UniProt Q9Y6B6: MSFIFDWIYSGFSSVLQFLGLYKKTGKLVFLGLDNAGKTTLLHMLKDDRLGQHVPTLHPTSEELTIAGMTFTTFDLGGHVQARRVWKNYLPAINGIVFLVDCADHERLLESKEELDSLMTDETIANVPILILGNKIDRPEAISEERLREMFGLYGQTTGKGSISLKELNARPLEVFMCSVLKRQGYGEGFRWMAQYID
# UniProt Q9Y512: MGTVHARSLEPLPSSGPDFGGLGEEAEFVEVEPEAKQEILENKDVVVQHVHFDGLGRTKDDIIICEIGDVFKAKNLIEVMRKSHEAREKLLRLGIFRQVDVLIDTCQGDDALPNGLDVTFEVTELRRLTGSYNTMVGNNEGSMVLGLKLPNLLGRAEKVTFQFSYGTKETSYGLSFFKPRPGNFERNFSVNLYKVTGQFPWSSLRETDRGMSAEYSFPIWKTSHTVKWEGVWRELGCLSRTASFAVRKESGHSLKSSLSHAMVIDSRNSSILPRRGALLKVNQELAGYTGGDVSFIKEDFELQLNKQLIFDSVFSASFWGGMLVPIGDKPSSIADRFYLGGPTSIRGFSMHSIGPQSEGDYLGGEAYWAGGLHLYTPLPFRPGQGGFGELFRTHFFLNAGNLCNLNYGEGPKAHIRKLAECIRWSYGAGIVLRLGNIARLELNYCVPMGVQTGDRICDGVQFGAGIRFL
# UniProt Q9Y3A5: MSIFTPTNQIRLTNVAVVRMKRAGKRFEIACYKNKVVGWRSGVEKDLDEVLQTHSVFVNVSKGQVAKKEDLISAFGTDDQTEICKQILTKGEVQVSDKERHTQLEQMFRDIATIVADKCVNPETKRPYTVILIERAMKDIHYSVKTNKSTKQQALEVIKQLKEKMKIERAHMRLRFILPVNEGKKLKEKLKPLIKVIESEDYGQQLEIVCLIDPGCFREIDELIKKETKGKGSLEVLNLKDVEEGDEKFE
# UniProt Q8NBX0: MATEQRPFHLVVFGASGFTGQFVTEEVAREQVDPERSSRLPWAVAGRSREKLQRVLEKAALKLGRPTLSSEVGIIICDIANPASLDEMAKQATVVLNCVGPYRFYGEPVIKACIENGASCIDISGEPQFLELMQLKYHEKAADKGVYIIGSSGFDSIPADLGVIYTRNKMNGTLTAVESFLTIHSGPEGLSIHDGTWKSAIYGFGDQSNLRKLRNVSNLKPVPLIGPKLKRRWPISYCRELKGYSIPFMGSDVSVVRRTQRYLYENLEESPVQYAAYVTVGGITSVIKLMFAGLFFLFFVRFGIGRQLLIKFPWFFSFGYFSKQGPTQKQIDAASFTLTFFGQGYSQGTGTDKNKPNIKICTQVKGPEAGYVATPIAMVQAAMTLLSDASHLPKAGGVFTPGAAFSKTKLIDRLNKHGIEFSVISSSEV
# UniProt Q9NR31: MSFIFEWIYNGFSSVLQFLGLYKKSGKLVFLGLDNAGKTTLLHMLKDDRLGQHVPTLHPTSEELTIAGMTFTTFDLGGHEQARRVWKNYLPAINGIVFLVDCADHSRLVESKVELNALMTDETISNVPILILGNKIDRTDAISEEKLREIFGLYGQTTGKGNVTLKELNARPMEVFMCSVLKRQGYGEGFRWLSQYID
# UniProt Q0VDG4: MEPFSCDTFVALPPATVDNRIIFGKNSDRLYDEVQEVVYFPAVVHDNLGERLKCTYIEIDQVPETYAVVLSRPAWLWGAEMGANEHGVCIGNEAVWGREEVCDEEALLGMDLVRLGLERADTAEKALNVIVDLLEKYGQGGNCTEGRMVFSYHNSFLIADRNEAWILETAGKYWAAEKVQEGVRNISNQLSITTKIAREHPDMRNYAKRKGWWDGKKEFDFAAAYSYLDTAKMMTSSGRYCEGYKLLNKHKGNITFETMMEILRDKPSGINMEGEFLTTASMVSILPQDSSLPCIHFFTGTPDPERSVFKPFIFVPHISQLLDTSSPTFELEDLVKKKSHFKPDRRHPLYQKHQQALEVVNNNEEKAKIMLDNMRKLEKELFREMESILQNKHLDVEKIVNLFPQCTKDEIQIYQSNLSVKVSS
# The list shows a part of the results.
# Compound: CC1Cc2ccccc2N1C(=O)C1CCCN(C1)C(=O)CCl (mixture of isomers) [TRIM25 ligand 11 (diastereomer mixture)]
# Assay: probe-labelled cysteine peptide fold change vs DMSO (competition) (log2 fold change); higher = less target engagement (more negative = stronger competition)
# Conditions: THP-1, incubation time: 4 h
# 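Also: competitive chemoproteomic profiling in live THP-1 cells with an iodoacetamide desthiobiotin (IA-DTB) probe, comparing probe-labelled peptide intensities in compound-treated cells against DMSO-treated controls.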
Target,probe-labelled cysteine peptide fold change (10 µM),probe-labelled cysteine peptide fold change (50 µM)
SEC24C_P53992_816_LNEESGALLQCALLYTSCAGQR (UniProt P53992),0.24,0.205
SEC23IP_Q9Y6Y8_457_GIDDNLDEIPDGEMPQVDHLVFVVHGIGPVCDLR (UniProt Q9Y6Y8),-0.0245,-0.00477
SCRIB_Q14160_864_HVACLAR (UniProt Q14160),0.00547,-0.0399
SEC13_P55735_299_ESVDGQWVCISDVNK (UniProt P55735),0.18,0.201
SCRIB_Q14160_22_HCSLQAVPEEIYR (UniProt Q14160),0.309,-0.163
SDF2L1_Q9HCN8_92_GGSEGGCPR (UniProt Q9HCN8),0.0108,0.00687
SEH1L_Q96EE3_161_IYEAPDVMNLSQWSLQHEISCK (UniProt Q96EE3),0.163,0.213
SEC16A_O15027_1451_FSVPHVCAR (UniProt O15027),-0.0536,0.00451
SEC63_Q9UGP8_295_KNEPPLTCPYSLK (UniProt Q9UGP8),-0.0396,-0.173
SEC63_Q9UGP8_671_EQTLISMPYHVCTLK (UniProt Q9UGP8),0.245,0.139
SAMHD1_Q9Y3Z3_266_PVMEQYGLIPEEDICFIK (UniProt Q9Y3Z3),0.232,0.153
SCAI_Q8N9R8_415_EMHCLHPGDLYPFTR (UniProt Q8N9R8),-0.441,-0.132
SAP18_O00422_26_TCPLLLR (UniProt O00422),-0.165,-0.0452
SCML2_Q9UQR0_324_EKPLPVICSTSAASLK (UniProt Q9UQR0),-0.0018,-0.148
SDHB_P21912_243+249_CHTIMNCTR (UniProt P21912),-0.0459,-0.14
SEC23A_Q15436_61_ERPDLPPIQYEPVLCSR (UniProt Q15436),-0.174,-0.102
SCML2_Q9UQR0_559_SSSLNSGNYLNPACR (UniProt Q9UQR0),-0.148,-0.14
SAR1B_Q9Y6B6_178_ELNARPLEVFMCSVLK (UniProt Q9Y6B6),-0.0793,-0.0345
SEC16A_O15027_1293_YWCDAEYDAYR (UniProt O15027),-0.117,-0.311
SCP2_P22307_495_ADCTITMADSDFLALMTGK (UniProt P22307),0.0353,-0.0602
SEC24D_O94855_780_SCETDALINFFAK (UniProt O94855),0.00338,0.0401

Target,probe-labelled cysteine peptide fold change (10 µM),probe-labelled cysteine peptide fold change (50 µM)
SAMM50_Q9Y512_237_ELGCLSR (UniProt Q9Y512),-0.0209,0.0477
SATB1_Q01826_78_GTMLPVFCVVEHYENAIEYDCKEEHAEFVLVR (UniProt Q01826),-0.0745,0.0094
SEC24B_O95487_1175_GCDNNFIEDVLGYTNFASIPQK (UniProt O95487),0.0861,0.0767
SCAPER_Q9BY12_71_QSTAVDCK (UniProt Q9BY12),-0.104,-0.189
SAMHD1_Q9Y3Z3_51_TWGPEQVCSFLR (UniProt Q9Y3Z3),0.0384,0.092
SBDS_Q9Y3A5_84_EDLISAFGTDDQTEICK (UniProt Q9Y3A5),-0.0659,0.0352
SEC23A_Q15436_350_AATTGHVIDIYACALDQTGLLEMK (UniProt Q15436),0.0214,0.0795
SEL1L3_Q68CR1_475_QEACHLHNSYLDLQR (UniProt Q68CR1),-0.0373,-0.0246
SEC24D_O94855_431_LDHYEKPELSLGSYEYVATLDYCR (UniProt O94855),0.264,0.154
SAMM50_Q9Y512_403_THFFLNAGNLCNLNYGEGPK (UniProt Q9Y512),0.0447,0.0425
SATB1_Q01826_91_GTMLPVFCVVEHYENAIEYDCK (UniProt Q01826),0.391,0.219
SDHA_P31040_266_TYFSCTSAHTSTGDGTAMITR (UniProt P31040),0.356,0.0782
SBDS_Q9Y3A5_210_VIESEDYGQQLEIVCLIDPGCFR (UniProt Q9Y3A5),-0.259,0.206
SCCPDH_Q8NBX0_238_RWPISYCR (UniProt Q8NBX0),-0.106,-0.146
SAP30L_Q9HAJ7_74_HLYICDFHK (UniProt Q9HAJ7),-0.136,-0.122
SEC24C_P53992_816_HDDRLNEESGALLQCALLYTSCAGQR (UniProt P53992),0.167,0.171
SAR1A_Q9NR31_178_PMEVFMCSVLK (UniProt Q9NR31),-0.0376,-0.0221
SDF2_Q99470_137_NLHSHHFTSPLSGNQEVSAFGEEGEGDYLDDWTVLCNGPYWVR (UniProt Q99470),0.298,0.622
SCLT1_Q96NL6_408_LTEELSALQMECAEK (UniProt Q96NL6),-0.198,-0.0431
SDAD1_Q9NVU7_87_DLLSCNHTVLDPDLR (UniProt Q9NVU7),0.239,0.348
SATB1_Q01826_91_GTMLPVFCVVEHYENAIEYDCKEEHAEFVLVR (UniProt Q01826),-0.0302,-0.135

# A few values from the entries so far.
# SEC63_Q9UGP8_671_EQTLISMPYHVCTLK (UniProt Q9UGP8) | probe-labelled cysteine peptide fold change (10 µM): 0.245
# SATB1_Q01826_91_GTMLPVFCVVEHYENAIEYDCK (UniProt Q01826) | probe-labelled cysteine peptide fold change (50 µM): 0.219

# (listing goes on)

Target,probe-labelled cysteine peptide fold change (10 µM),probe-labelled cysteine peptide fold change (50 µM)
SCCPDH_Q8NBX0_77_LGRPTLSSEVGIIICDIANPASLDEMAK (UniProt Q8NBX0),-0.0992,0.079
SCMH1_Q96GD3_225_DIFPVGWCSLTGDNLQPPGTK (UniProt Q96GD3),-0.183,-0.00321
SATB1_Q01826_209_ECPLSQSMISSIVNSTYYANVSAAK (UniProt Q01826),0.0445,-0.102
SCRN3_Q0VDG4_143_YGQGGNCTEGR (UniProt Q0VDG4),0.127,0.144
SAR1A_Q9NR31_178_ELNARPMEVFMCSVLK (UniProt Q9NR31),-0.219,-0.202
SCRIB_Q14160_334_NHLEALPPEIGGCVALSVLSLR (UniProt Q14160),-0.0211,0.199
SATB2_Q9UPW6_539_TLWENLCTIR (UniProt Q9UPW6),0.0117,0.0195
SEPSECS_Q9HD40_431_GFMSHTNNYPCAYLNAASAIGMK (UniProt Q9HD40),0.0777,-0.101
SEC23IP_Q9Y6Y8_467_SIIECVDDFR (UniProt Q9Y6Y8),0.13,0.172
SENP8_Q96LD8_64_CTSNPAEIAMFLEPLDLPNKR (UniProt Q96LD8),-0.146,-0.105
SAPCD2_Q86UD0_46_GCVHLR (UniProt Q86UD0),-0.0698,0.204
SEC24C_P53992_448_FQCCFCSCINDVPPQYFQHLDHTGKR (UniProt P53992),-0.0515,0.139
SEC16A_O15027_1797_TEAYEYAQSLGAETCPLPSFQVFK (UniProt O15027),0.089,-0.114
SEC14L1_Q92503_614_DYSMVESPLICK (UniProt Q92503),-0.167,-0.249
SEPHS1_P49903_306_ACGNMFGLMHGTCPETSGGLLICLPR (UniProt P49903),-0.137,-0.526
SDHA_P31040_89_AAFGLSEAGFNTACVTK (UniProt P31040),-0.0242,-0.0133
SDSL_Q96GA7_296_LQAEGCLPPSLTSVVVIVCGGNNINSR (UniProt Q96GA7),-0.173,-0.155
SDF2_Q99470_80_SATVCER (UniProt Q99470),-0.0318,0.0662
SAMM50_Q9Y512_65_DDIIICEIGDVFK (UniProt Q9Y512),0.186,-0.000637
SEMA4A_Q9H3S1_547_GNPEWACASGPMSR (UniProt Q9H3S1),-0.0856,0.0126
SEC13_P55735_153_KINNAHTIGCNAVSWAPAVVPGSLIDHPSGQKPNYIK (UniProt P55735),0.0248,-0.301

Target,probe-labelled cysteine peptide fold change (10 µM),probe-labelled cysteine peptide fold change (50 µM)
SCRN3_Q0VDG4_406_IVNLFPQCTK (UniProt Q0VDG4),0.0937,-0.0148
SENP6_Q9GZR1_972_QPCILLMDSLR (UniProt Q9GZR1),-0.191,0.123
SCYL1_Q96KG9_88_CLHVVTEAVTPLGIYLK (UniProt Q96KG9),0.108,0.0942
SCAF8_Q9UPN6_1170_DRDDRDFDFCR (UniProt Q9UPN6),-0.00849,-0.163
SEC23B_Q15437_352_TAANGHCIDIYACALDQTGLLEMK (UniProt Q15437),-0.0764,-0.0575
SCFD2_Q8WU76_54_LLEAVGGPDCHLR (UniProt Q8WU76),0.23,0.0601
SAMHD1_Q9Y3Z3_320_DCHHLGIQNNFDYK (UniProt Q9Y3Z3),0.0717,0.0765
SEMA4D_Q92854_370_PRPGACIDSEAR (UniProt Q92854),0.0249,0.0269
SCCPDH_Q8NBX0_238_WPISYCR (UniProt Q8NBX0),-0.173,-0.176
SCFD1_Q8WVM8_623_HILYGCSELFNATQFIK (UniProt Q8WVM8),0.017,-0.00461
SCYL2_Q6P3W7_511_VNSLVCLGK (UniProt Q6P3W7),-0.17,0.0145
SEC24C_P53992_910_LLPVYLNCVLK (UniProt P53992),-0.0462,-0.0543
SDHA_P31040_536_VGSVLQEGCGK (UniProt P31040),0.0561,-0.0167
SART3_Q15020_527_AHGDTQHCR (UniProt Q15020),0.0106,0.00251
SART3_Q15020_821_EELEEICK (UniProt Q15020),0.177,0.153
SAR1B_Q9Y6B6_178_PLEVFMCSVLK (UniProt Q9Y6B6),0.0453,-0.0532
SEH1L_Q96EE3_133_HMGLMLATCSADGIVR (UniProt Q96EE3),-0.0651,0.223
SEC24D_O94855_853_NCVLLSRPEISTDER (UniProt O94855),0.108,0.0493
SAP30_O75446_112_HLYICDYHK (UniProt O75446),0.0172,0.0453
SEC24C_P53992_493_RVDAYDRPELSLGSYEFLATVDYCK (UniProt P53992),-0.123,0.0859

# Pulled one by one from above (four):
Target,probe-labelled cysteine peptide fold change (10 µM),probe-labelled cysteine peptide fold change (50 µM)
SAMHD1_Q9Y3Z3_266_PVMEQYGLIPEEDICFIK (UniProt Q9Y3Z3),0.232,0.153
SDHA_P31040_536_VGSVLQEGCGK (UniProt P31040),0.0561,-0.0167
SDF2_Q99470_137_NLHSHHFTSPLSGNQEVSAFGEEGEGDYLDDWTVLCNGPYWVR (UniProt Q99470),0.298,0.622
SEC16A_O15027_1293_YWCDAEYDAYR (UniProt O15027),-0.117,-0.311
